# From paper PMC5996148
# The list shows a part of the results. For some of these results: The exact form of the protein is not confirmed.
# Tests used:
# Assay in all cases: protein microarray (ProtoArray v5.0), streptavidin-Alexa Fluor 647
# Settings in all cases: 3'-biotin; 20 mM Tris (pH 7.5), 5 mM MgCl2, 100 mM KCl, 0.1% Tween-20, A/T-rich and random oligonucleotide blockers; temperature not stated; high values mean tight binding
# [1] = tested on: Autophagy-related protein 3 (human)
# [2] = tested on: Autophagy-related protein 7 (human)
# [3] = tested on: B melanoma antigen 3 (human)
# B3GALT4 (human) = tested on: B3GALT4 (human)
# B3GALTL (human) = tested on: B3GALTL (human)
# B3GNT1 (human) = tested on: B3GNT1 (human)
# B3GNT3 = target: T1, B3GNT3 (UniProt Q9Y2A9)
# T1 sequence: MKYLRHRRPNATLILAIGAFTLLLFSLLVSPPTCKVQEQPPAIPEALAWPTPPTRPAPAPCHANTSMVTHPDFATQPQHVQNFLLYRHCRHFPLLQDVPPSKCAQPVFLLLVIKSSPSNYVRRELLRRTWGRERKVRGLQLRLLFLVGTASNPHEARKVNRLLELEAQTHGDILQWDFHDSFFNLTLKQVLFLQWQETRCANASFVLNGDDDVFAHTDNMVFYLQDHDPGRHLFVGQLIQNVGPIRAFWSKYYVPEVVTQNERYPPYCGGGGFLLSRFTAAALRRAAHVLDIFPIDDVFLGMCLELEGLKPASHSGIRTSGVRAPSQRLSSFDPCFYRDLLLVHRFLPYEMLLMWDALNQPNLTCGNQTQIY
# BAG2 (human) = tested on: BAG2 (human)
# BATF2 = target: T2, BATF2 (UniProt Q8N1L9)
# T2 sequence: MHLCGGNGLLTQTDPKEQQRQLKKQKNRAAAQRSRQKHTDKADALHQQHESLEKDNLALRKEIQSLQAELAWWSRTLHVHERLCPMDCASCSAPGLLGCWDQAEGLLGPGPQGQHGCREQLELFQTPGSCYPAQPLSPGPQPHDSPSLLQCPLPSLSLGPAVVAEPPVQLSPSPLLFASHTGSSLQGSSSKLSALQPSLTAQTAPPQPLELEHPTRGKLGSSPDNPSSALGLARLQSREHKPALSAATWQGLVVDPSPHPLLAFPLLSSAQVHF
# BBOX1 (human) = tested on: BBOX1 (human)
sequence,measurement,setting,value
GGGAGGCTGAGGCAGG [G4-1 biotinylated (PQS2)],binding signal,[1],-0.364 z-score
same,binding signal,[2],-0.321 z-score
same,binding signal,[3],-0.343 z-score
same,binding signal,B3GALT4 (human),-0.343 z-score
same,binding signal,B3GALTL (human),-0.271 z-score
same,binding signal,B3GNT1 (human),-0.338 z-score
same,binding signal,B3GNT3,-0.255 z-score
same,binding signal,BAG2 (human),-0.323 z-score
same,binding signal,BATF2,-0.343 z-score
same,binding signal,BBOX1 (human),-0.327 z-score

# Copied from the listing for reference:
sequence,measurement,setting,value
GGGAGGCTGAGGCAGG [G4-1 biotinylated (PQS2)],binding signal,B3GNT1 (human),-0.338 z-score
same,binding signal,B3GNT3,-0.255 z-score
